Source: PubChem BioAssay AID1159584 (Peter MacCallum Cancer Centre, 2016)
Assay: 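Genes that CDH1-null MCF10A cells selectively depend on to survive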 (primary screen). System: human MCF10A breast epithelial cells, parental and CDH1-null. Knock-down reagent: siRNA against human genes. Detection: 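Cell viability by CellTiter-Glo ATP luminescence, each line scaled to the mean of mock wells across plates, then CDH1-null over parental ratio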. Reading the numbers: CDH1-null / parental viability ratio: higher = CDH1-null cells survive relatively better than parental; CDH1-null viability vs mock: higher = more viable CDH1-null cells; parental viability vs mock: higher = more viable parental cells.
In all, the deposit lists about 18,000 reagents; this is a part drawn at random. Not given: the amount of reagent, the time to read-out.

target gene	CDH1-null / parental viability ratio	CDH1-null viability vs mock (fraction of mock)	parental viability vs mock (fraction of mock)
PYHIN1	0.67	0.6	0.9
CD8B	0.99	0.99	1
TLNRD1	1.22	0.9	0.74
KIRREL2	1.23	0.79	0.64
SHLD1	0.94	0.76	0.81
MT1G	1.16	0.96	0.83
DRD4	0.92	0.82	0.89
LARP4	0.8	0.76	0.95
ADRA1B	1.95	0.82	0.42
COG6	0.75	0.48	0.64
PUS7	0.9	0.6	0.67
KCNQ3	1.26	1.26	1
AARD	1.05	0.8	0.76
SERINC4	1.16	0.72	0.62
ABCA9	0.96	1.12	1.17
FIS1	0.91	0.78	0.86
TRARG1	1.04	0.76	0.73
ZNF558	1.04	0.95	0.91
CD2	1.32	1.02	0.77
GSDMC	1.05	1.07	1.02
NCCRP1	0.98	0.6	0.61
F8A2	0.85	0.56	0.66
NRG2	1.16	1	0.86
RWDD4	0.84	0.62	0.74
CFAP410	1.43	0.4	0.28
MAGEA3	0.98	0.9	0.92
SIGIRR	1.28	1.18	0.92
OR8B3	0.9	0.76	0.84

Part of the list above in another layout:
{"target gene":"MAGEA3","CDH1-null / parental viability ratio":0.98,"CDH1-null viability vs mock (fraction of mock)":0.9,"parental viability vs mock (fraction of mock)":0.92}
{"target gene":"SIGIRR","CDH1-null / parental viability ratio":1.28,"CDH1-null viability vs mock (fraction of mock)":1.18,"parental viability vs mock (fraction of mock)":0.92}
{"target gene":"OR8B3","CDH1-null / parental viability ratio":0.9,"CDH1-null viability vs mock (fraction of mock)":0.76,"parental viability vs mock (fraction of mock)":0.84}
